Read-outs that look alike come from different tables or passages of the source. No constants are given. Whether binding was seen depends on the method and setting. In cells and extracts the contact can be indirect. Some binding calls cover weakened binding; strength is not graded here.
What was measured:
[1] = target: Mutant KIT (MT-KIT) of GIST882 cells (homozygous exon 13 K642E point mutation) (human (endogenous in GIST882)) (UniProt P10721); assay: co-IP; 500 µg of GIST cell lysate mixed with a KIT antibody (Cell Signaling Technology) or control IgG and protein A/G PLUS-Agarose, 4 °C overnight; washed, eluted by boiling; western blot of endogenous partners
[2] = target: Mutant KIT (MT-KIT) of GIST882 cells (homozygous exon 13 K642E point mutation) (human (endogenous in GIST882)) (UniProt P10721); assay: as above; remark: listed apart in the source

Amino acid sequences for entries named in this document (tags omitted). A change or cut given only in a name is not applied to a line headed by its entry. Chains listed by the source or under a name are the forms on record and can include a tag or linker.
Mutant KIT (MT-KIT) of GIST882 cells (homozygous exon 13 K642E point mutation) (human (endogenous in GIST882)) (P10721, form named): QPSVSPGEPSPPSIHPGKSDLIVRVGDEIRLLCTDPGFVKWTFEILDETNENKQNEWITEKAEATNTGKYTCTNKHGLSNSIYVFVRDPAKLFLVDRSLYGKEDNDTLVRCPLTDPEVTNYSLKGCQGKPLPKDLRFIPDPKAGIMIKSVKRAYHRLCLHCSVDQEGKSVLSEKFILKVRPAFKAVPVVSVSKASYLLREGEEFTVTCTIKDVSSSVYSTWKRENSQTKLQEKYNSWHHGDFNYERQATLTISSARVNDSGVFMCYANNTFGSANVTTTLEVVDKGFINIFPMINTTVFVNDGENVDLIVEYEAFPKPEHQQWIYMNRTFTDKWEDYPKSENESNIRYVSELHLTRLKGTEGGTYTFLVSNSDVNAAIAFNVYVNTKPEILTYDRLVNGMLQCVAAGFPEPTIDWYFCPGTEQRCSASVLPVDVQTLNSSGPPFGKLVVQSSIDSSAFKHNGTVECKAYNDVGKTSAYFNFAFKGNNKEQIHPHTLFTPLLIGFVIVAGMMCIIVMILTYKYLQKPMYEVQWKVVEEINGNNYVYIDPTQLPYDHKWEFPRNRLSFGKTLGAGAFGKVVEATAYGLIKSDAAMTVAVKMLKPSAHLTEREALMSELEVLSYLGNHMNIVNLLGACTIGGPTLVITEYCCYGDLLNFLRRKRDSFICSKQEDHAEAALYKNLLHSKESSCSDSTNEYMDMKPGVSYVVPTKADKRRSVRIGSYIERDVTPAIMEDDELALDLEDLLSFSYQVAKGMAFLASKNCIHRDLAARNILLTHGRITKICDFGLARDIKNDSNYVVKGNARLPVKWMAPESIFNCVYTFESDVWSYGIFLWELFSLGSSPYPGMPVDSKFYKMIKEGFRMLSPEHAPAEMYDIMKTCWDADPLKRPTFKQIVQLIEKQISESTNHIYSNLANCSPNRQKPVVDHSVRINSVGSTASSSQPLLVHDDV
UniProt P62993: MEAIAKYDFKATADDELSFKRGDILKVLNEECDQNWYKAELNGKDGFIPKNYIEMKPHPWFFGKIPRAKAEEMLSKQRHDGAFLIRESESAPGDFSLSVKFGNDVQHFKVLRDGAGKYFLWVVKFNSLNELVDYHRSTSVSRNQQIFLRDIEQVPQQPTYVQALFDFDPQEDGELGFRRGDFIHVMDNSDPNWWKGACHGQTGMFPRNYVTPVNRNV

binding [1] | binding [2] | Molecule
binds | – | GRB2 (from UniProt P62993 1-217)
– | binds | Basic leucine zipper nuclear factor 1 (BLZF1) (protein, UniProt Q9H2G9 1-400) MTTKNLETKVTVTSSPIRGAGDGMETEEPPKSVEVTSGVQSRKHHSLQSPWKKAVPSESPGVLQLGKMLTEKAMEVKAVRILVPKAAITHDIPNKNTKVKSLGHHKGEFLGQSEGVIEPNKELSEVKNVLEKLKNSERRLLQDKEGLSNQLRVQTEVNRELKKLLVASVGDDLQYHFERLAREKNQLILENEALGRNTAQLSEQLERMSIQCDVWRSKFLASRVMADELTNSRAALQRQNRDAHGAIQDLLSEREQFRQEMIATQKLLEELLVSLQWGREQTYSPSVQPHSTAELALTNHKLAKAVNSHLLGNVGINNQKKIPSTVEFCSTPAEKMAETVLRILDPVTCKESSPDNPFFESSPTTLLATKKNIGRFHPYTRYENITFNCCNHCRGELIAL
